Measurements from the supplement of paper PMC5407854, “Inhibitor of ppGalNAc-T3-mediated O-glycosylation blocks cancer cell invasiveness and lowers FGF23 levels” (eLife, 2017).
In all, about 1,700 compounds were measured (“T3 sensor activation Q score (MG/GFP ratio z-score vs DMSO controls)”: median about 0.25, highest 2% from about 1.9 on). This is one part of the list. Numbered stars: 1 amine (or outer) side, 2 acyl side, 3 side chain; on linkers, the order of the positions; unused ones are H or OH. Bridge positions count the residues as written; N and C are the ends. Square brackets hold non-standard residues; d marks the D form. Peptide text beside a SMILES is read from it. I, II: the chains in the order shown. Actinocin(9to1) = Cc1c2oc3c(C)ccc(C(=O)[*:1])c3nc-2c(C(=O)[*:2])c(N)c1=O; NMeV = CN[C@H](C(=O)O)C(C)C; Sar = CNCC(=O)O

Test system: ppGalNAc-T3 sensor
Experiment: T3 sensor activation Q score (MG/GFP ratio z-score vs DMSO controls) (SD units); higher = more sensor activation (inhibition of ppGalNAc-T3 glycosylation)
Conditions: HEK293 sensor cells; 10 µM; 6 h
Protocol: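 Cells were treated with compound at 10 uM for 6 h, then MG/GFP ratio was read by flow cytometry (10,000 cells per well, duplicate wells). Q = (R - R_neg)/SD_neg relative to DMSO vehicle controls; the signal rises when the glycosyltransferase is inhibited.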

Row | Compound | T3 sensor activation Q score
1 | NC(=O)NO | 1
2 | O=C(Nc1cccc2c1N(C(=O)c1ccco1)CCC2)c1ccco1 | 1.05
3 | CCC(C)Nc1nc2c(c(=O)n(C)c(=O)n2C)n1C (stereo not drawn) | 1.4
4 | Nc1ncnc2c1ncn2[C@@H]1C=C(CO)[C@@H](O)[C@H]1O | 1.55
5 | CO[C@H]1C(=O)[C@]2(C)[C@@H](OC)C[C@H]3OC[C@@]3(OC(C)=O)[C@H]2[C@H](OC(=O)c2ccccc2)[C@]2(O)C[C@H](OC(=O)[C@H](O)[C@@H](NC(=O)OC(C)(C)C)c3ccccc3)C(C)=C1C2(C)C | -1.1
6 | CC(O)c1nc2c(c(=O)n(C)c(=O)n2C)n1C (stereo not drawn) | -0.25
7 | NC(=O)c1ccccc1OCC(=O)Nc1ccc(Cl)c(Cl)c1 | -1.3
8 | O=[N+]([O-])c1[nH]cnc1/C=C/c1ccccc1 | -1.15
9 | CN=C1C=C/C(=N/N=c2/ccn(O)cc2C)C=C1C | 0.15
10 | Nc1nc(F)nc2c1ncn2C1OC(COP(=O)(O)O)C(O)C1O (stereo not drawn) | -0.05
11 | CCOC(=O)Nc1ccc2nc(N3CCCCCC3)sc2c1 | -0.2
12 | CC[C@]1(O)C[C@@H]2CN(CCc3c([nH]c4ccccc34)[C@@](C(=O)OC)(c3cc4c(cc3OC)N(C)[C@H]3[C@@](O)(C(=O)OC)[C@H](OC(C)=O)[C@]5(CC)C=CCN6CC[C@]43[C@@H]65)C2)C1 | 1.45
13 | CC(C)(C)c1ccc(OC(=O)c2ccccc2)cc1 | 0.55
14 | CN(C)c1ccc(N=Nc2cccc3ccoc23)cc1 | -0.6
15 | Cn1c(N)c(N=Nc2ccc(S(N)(=O)=O)cc2)c(=O)n(C)c1=O | 0.75
16 | Cc1cc2c3ccccc3ncn2n1 | -0.95
17 | CCOC(=O)c1c(C)nc(C)c(C(=O)OCC)c1-c1cccnc1 | 0.9
18 | c1ccc2c(c1)Nc1ccncc1S2 | -1
19 | Cc1cc2c(c(C#N)c1C)NC=NC2C (stereo not drawn) | -1.05
20 | CCCNC(=S)Nc1ccccc1 | -1
21 | CC(C)CCCCCCCCCCCCC(=O)NCC(=O)NC1C(C)OC(Nc2ncnc3nc[nH]c23)C(O)C1O (stereo not drawn) | -1.5
22 | CN1CCN(C2=NCCO2)CC1 | 0.7
23 | CC1=Nc2ccccc2/C1=C\c1c(C)[nH]c2ccccc12 | -0.45
24 | CN1CCC(n2[nH]c(-c3ccccc3)c(Cc3ccccc3)c2=O)CC1 | -0.4

Row | Compound | T3 sensor activation Q score
25 | O=C1NC(=S)S/C1=C\c1ccccc1C(=O)O | -1.45
26 | c1coc(CNc2ncnc3[nH]ncc23)c1 | -0.4
27 | COC(=O)c1ccc(Cn2cnc3c(Cl)ncnc32)cc1 | 0.3
28 | CCCCCCCC1(C)NC(=O)NC1=O (stereo not drawn) | -1.9
29 | O=C1c2cccc(Oc3ccccc3)c2C(=O)c2cccc(Oc3ccccc3)c21 | -0.1
30 | N#CN=C(N)c1ccccc1 | 1.2
31 | CCOC(=O)Cc1csc2nc(-c3ccccc3)nn12 | 0.25
32 | CCOc1ccc(NC(=O)c2cc3ccccc3cc2O)cc1 | -0.1
33 | COC(=O)N1C2CCCCC2=NN(c2ccccc2)N1C(=O)OC (stereo not drawn) | -0.6
34 | C(=N\n1cnnc1)/c1ccc2c(c1)CCC2 | 0.05
35 | Cc1nc(C(N)=O)nc2ccccc12 | 0.2
36 | Cc1c2cnccc2c(C)c2c1c1ccccc1n2CCOC(=O)c1ccccc1 | 1.8
37 | COc1ccc(OC)c(NC(=O)c2cc3oc4ccccc4c3cc2O)c1 | -1.55
38 | Cn1ncc2c(Nc3ccc([N+](=O)[O-])cc3)nc(Cl)nc21 | 1.05
39 | Clc1nc(NCCc2ccccc2)c2cn[nH]c2n1 | 0.95
40 | COC(=O)c1cc2c(n1S(=O)(=O)c1ccc(C)cc1)C(=O)C(=O)c1[nH]cc(C(=O)OCc3ccccc3)c1-2 | 0.25
41 | CC(C)(C)c1ccc(C(=O)Nc2ccc(S(N)(=O)=O)cc2)cc1 | 0.9
42 | O=C1C2CC3N1CCC31c3ccccc3-n3c1c2ccc3=O (stereo not drawn) | -0.15
43 | CC(=O)O[C@]1(C(C)=O)CC[C@H]2[C@@H]3C=C(C)C4=CC(=O)CC[C@]4(C)[C@H]3CC[C@@]21C | 0.05
44 | CC[C@@]1(O)C(=O)OCc2c1cc1n(c2=O)Cc2cc3c(CN(C)C)c(O)ccc3nc2-1 | -1.6
45 | Cc1ccc(-c2cc(C(=O)O)c3ccccc3n2)c(C)c1 | 1.8
46 | Clc1nnc(NC2CCCCC2)c(Cl)c1Cl | 0.1
47 | O=C1CSCc2nc3ccccc3n21 | -0.85
48 | COC(=O)C(=Cc1ccccc1[N+](=O)[O-])C(=O)OC | -0.8

Row | Compound | T3 sensor activation Q score
49 | COc1ccccc1/C=C(\C#N)C(=O)O | -0.4
50 | Cc1nc2nc(C(F)(F)F)[nH]c2nc1C | 1.15
51 | Cc1c2oc3c(C)ccc(C(=O)N[C@@H]4C(=O)N[C@H](C(C)C)C(=O)N5CCC[C@H]5C(=O)N(C)CC(=O)N(C)[C@@H](C(C)C)C(=O)O[C@@H]4C)c3nc-2c(C(=O)N[C@@H]2C(=O)N[C@H](C(C)C)C(=O)N3CCC[C@H]3C(=O)N(C)CC(=O)N(C)[C@@H](C(C)C)C(=O)O[C@@H]2C)c(N)c1=O (I: T[dV]P[Sar][NMeV] / II: T[dV]P[Sar][NMeV]; ester I:1-I:C, II:1-II:C; linker I:N-II:N via Actinocin(9to1)) | 0.05
52 | O=C(Nc1ccc(Cl)c(Cl)c1)Nc1ccc([N+](=O)[O-])cn1 | 0.55
53 | Cn1c2ccccc2c2ccc3c(c21)C(=O)C=CC3=O | 1.35
54 | C=CCNC(=O)C1COc2ccccc2O1 (stereo not drawn) | -1.25
55 | CC(C)Cn1cnc2c(N)nc3ccccc3c21 | -1.35
56 | O=C(Nc1ccccc1-c1ccccc1)C(=O)Nc1ccccc1-c1ccccc1 | 1.65
57 | c1ccc(-c2nnc(-c3ccccc3)nn2)cc1 | -0.3
58 | Cc1c2cc(O)c(=O)cc-2oc2cc(O)c(O)cc12 | 0.15
59 | CCOC(=O)c1cc(-c2cccnc2)nc2c(Cl)cc(Cl)cc12 | 1.7
60 | COc1cccc2c1C(CO)N1C(C#N)C3CC(C(=O)O)C(C1C2)N3C (stereo not drawn) | -0.6
61 | CCCc1nc(NC(=O)c2ccccc2)nc(NC(=O)c2ccccc2)n1 | 0.35
62 | c1ccc(-c2n[nH]c(-c3ccccn3)n2)nc1 | 0.8
63 | O=C(c1cccnc1)c1cc(-c2ccccn2)c(=O)n2ccccc12 | 1.25
64 | OCCCCc1nccc2c1[nH]c1ccccc12 | 1
65 | Nc1cnc(Nc2ccc(Br)cc2)nc1N | 0
66 | O=C(/C=C/C(=O)N1CCc2ccccc2C1)N1CCc2ccccc2C1 | 0.2
67 | O=C(/C=C/c1ccc2ccccc2n1)c1cc(Cl)ccc1O | -0.8
68 | c1cc(CN2CCCNCCNCCCNCC2)ccc1CN1CCCNCCNCCCNCC1 | -0.5
69 | COC(=O)CC1(C(=O)OC)Nc2cc(Cl)c(Cl)cc2S(=O)(=O)N1O (stereo not drawn) | 0.7
70 | O=C(Nc1ccc(F)cc1)OCCOc1ccc(Br)cc1 | 0.15
71 | COc1cc(NC(C)=O)c2ncccc2c1Br | -1.05
72 | CC1(C)CCSC(/C=C/c2ccccc2)=N1 | -1

Row | Compound | T3 sensor activation Q score
73 | N#Cc1nnn2c1nc(N)c1c(Cl)cccc12 | 1.65
74 | CCOc1ccc(NC(=O)Nc2cc(C(C)C)ccc2C)cc1 | 0.4
75 | NCC(=O)CCC(=O)O | 0.05
76 | CCOCCc1c(O)nc(SC)[nH]c1=O | 0.55
77 | Nc1nc(SCc2ccccc2)sc1C(=O)N1CCCCC1 | 1.35
78 | OCC1(CO)CC2(C1)CC(CO)(CO)C2 | -1.15
79 | COc1ccc2c(c1)C(=O)C1NC(=O)NC(=O)C1(Br)N2 (stereo not drawn) | -0.1
80 | COc1cccc(/C=C/c2nccc3ccccc23)c1OC | 0.65
81 | NC(=O)c1cc2c3ccccc3ccn2c1-c1ccccc1 | 2.95
82 | Cn1c(=O)c2[nH]c(COc3ccc(C(C)(C)C)cc3)nc2n(C)c1=O | -0.3
83 | COC(=NC(C)C)NC(C)C | -3.05
84 | CC1CC(C)(C)NC2(CCCC2)N1 (stereo not drawn) | -0.6
85 | COc1ccc2c(c1)CCN1C2CCN2C(=O)CCC21 (stereo not drawn) | -0.35
86 | CC1CO/C(=C2\C(=O)OCC2C)C1 (stereo not drawn) | -1.1
87 | Cc1cc(-n2cnc3c(=O)[nH]cnc32)ccc1N | 1.6
88 | Cc1cc(/C=C2\SC(=S)NC2=O)cc(C)c1O | 1.6
89 | CCC1(C(=O)OC)CCc2c(cc(OC)c3ccccc23)C1=O (stereo not drawn) | 0.25
90 | CC(=O)CC(=O)Nc1ccc2ccccc2c1 | 1.25
91 | O=C1COc2cccnc2N1 | 1.4
92 | CC(=O)Nc1nc(C)c(CCCOc2ccc([N+](=O)[O-])cc2)c(=O)[nH]1 | 1.75
93 | CCCCc1c(C)[nH]c(=S)[nH]c1=O | -0.85
94 | CN1CN(C)C(c2ccncc2)=C1c1ccncc1 | 0.75
95 | CCOC(=O)C1CC(=O)c2cc(OC)c(OC)cc2C1 (stereo not drawn) | 0.9
96 | COc1ccc(N=Nc2ccc(N)nc2N)cc1 | 0.75

Entries above with fluorine, in the order listed:
Row | Compound | T3 sensor activation Q score
10 | Nc1nc(F)nc2c1ncn2C1OC(COP(=O)(O)O)C(O)C1O (stereo not drawn) | -0.05
50 | Cc1nc2nc(C(F)(F)F)[nH]c2nc1C | 1.15
70 | O=C(Nc1ccc(F)cc1)OCCOc1ccc(Br)cc1 | 0.15

Three entries already listed, arranged by SMILES length, smallest number first:
Row | Compound | T3 sensor activation Q score
76 | CCOCCc1c(O)nc(SC)[nH]c1=O | 0.55
96 | COc1ccc(N=Nc2ccc(N)nc2N)cc1 | 0.75
82 | Cn1c(=O)c2[nH]c(COc3ccc(C(C)(C)C)cc3)nc2n(C)c1=O | -0.3

Later entries:

Row | Compound | T3 sensor activation Q score
97 | COc1ccc(Cc2nnc(SC)n2-c2ccc(F)cc2)cc1OC | -0.25
98 | Cc1nnc2nc(N)[nH]n2c1=O | -1.2
99 | CCOC(=O)Nc1c2ccccc2nc2ccccc12 | -1.8
100 | CS(=O)(=O)Oc1ccc(Br)c2cccnc12 | 0.95
101 | O=C(Nc1ccc2ccccc2c1)c1ccc(Cl)cc1Cl | 1
102 | COc1cc2c(=O)n3c4c(cccc4c2cc1OC)CC3 | 1.2
103 | COc1ccc(C(C)=O)cc1CO/N=C1\CSCc2ccccc21 | 1.45
104 | COc1cc(C(=O)C(=O)c2ccc(O)c(OC)c2)ccc1O | 0.75
105 | Oc1ccc(Nc2ccc3ccccc3c2)cc1 | 0.1
106 | Nc1nc2c(ncn2C2CCCC2)c(=O)[nH]1 | -0.9
107 | CCCCC(=O)N1CCCC(C)C1 (stereo not drawn) | -1.35
108 | Nc1ncnc2c1cnn2C1CCCCC1 | -0.5
109 | CCN(CC)CCNc1c(C)cc(CO)c(Cl)c1C | 0.85
110 | CCOC(=O)C1C(=O)C(=O)N(C(C)C)C1C(=O)OCC (stereo not drawn) | 1.05
111 | Nc1ncc2[nH]c(N)nc2n1 | 1.65
112 | O=C(NC1(N2CCOCC2)CC1)c1ccc(Cl)cc1 | -0.7
113 | Nc1ncn([C@H]2C[C@H](O)[C@@H](CO)O2)c(=O)n1 | 1.05
114 | Clc1nc(Cl)nc(-c2cn(-c3ccccc3)c3ccccc23)n1 | -0.15
115 | Nc1ccc(Cn2ccc3c4c(N)nc(N)nc4ccc32)cc1 | -0.95
116 | c1ccc(-c2nc(-c3ccccn3)nc(-c3ccccn3)n2)nc1 | -0.7
117 | O=C(COc1cc(Cl)c(Cl)cc1Cl)Nc1ccc([N+](=O)[O-])cc1Cl | -0.3
118 | Brc1ccc(N=Nc2ccc3ccccc3n2)cc1 | 0.5
